Assay results reported in PubChem BioAssay AID179 (DTP/NCI, 2004).

Tested on: CEM cells HIV-1 protection, formazan growth assay
Test: NCI AIDS Antiviral Assay
Procedure, shortened: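 Soluble formazan readout of cell growth; CEM cells ± HIV-1; 5 drug concs. ≥50% protection → retest; ≥50% again = moderately active; reproducible 100% = confirmed active.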

Question: How did the EC50 turn out when `COc1c(O)cc2c(c1OC)-c1ccc(SC)c(=O)cc1C(NC(C)=O)CC2` (configuration not stated) was run?
Answer: > 6.17 µM

Question: What about the IC50 (measured here: growth of uninfected CEM cells) of the same compound?
Answer: 2 nM
